Results as given in the supplement of paper PMC12067093, “Discovery and optimisation of a covalent ligand for TRIM25 and its application to targeted protein ubiquitination” (Chemical Science, 2025).
Some of the results follow.

Amino acid sequences for entries named in this document (tags omitted). A change or cut given only in a name is not applied to a line headed by its entry.
UniProt Q9UGI8: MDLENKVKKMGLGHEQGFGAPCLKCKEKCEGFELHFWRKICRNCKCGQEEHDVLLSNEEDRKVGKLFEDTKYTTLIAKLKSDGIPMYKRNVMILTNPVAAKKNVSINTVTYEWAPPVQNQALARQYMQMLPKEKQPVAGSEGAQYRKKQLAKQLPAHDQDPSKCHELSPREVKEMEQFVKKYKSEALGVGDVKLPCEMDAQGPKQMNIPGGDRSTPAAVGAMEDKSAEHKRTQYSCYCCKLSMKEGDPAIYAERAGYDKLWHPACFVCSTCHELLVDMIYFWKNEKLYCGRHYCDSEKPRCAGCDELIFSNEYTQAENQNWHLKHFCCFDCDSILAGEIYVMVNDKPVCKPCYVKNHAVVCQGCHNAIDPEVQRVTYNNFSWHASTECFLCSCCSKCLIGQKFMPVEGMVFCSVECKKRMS
UniProt Q9Y4R8, whole entry, looked up: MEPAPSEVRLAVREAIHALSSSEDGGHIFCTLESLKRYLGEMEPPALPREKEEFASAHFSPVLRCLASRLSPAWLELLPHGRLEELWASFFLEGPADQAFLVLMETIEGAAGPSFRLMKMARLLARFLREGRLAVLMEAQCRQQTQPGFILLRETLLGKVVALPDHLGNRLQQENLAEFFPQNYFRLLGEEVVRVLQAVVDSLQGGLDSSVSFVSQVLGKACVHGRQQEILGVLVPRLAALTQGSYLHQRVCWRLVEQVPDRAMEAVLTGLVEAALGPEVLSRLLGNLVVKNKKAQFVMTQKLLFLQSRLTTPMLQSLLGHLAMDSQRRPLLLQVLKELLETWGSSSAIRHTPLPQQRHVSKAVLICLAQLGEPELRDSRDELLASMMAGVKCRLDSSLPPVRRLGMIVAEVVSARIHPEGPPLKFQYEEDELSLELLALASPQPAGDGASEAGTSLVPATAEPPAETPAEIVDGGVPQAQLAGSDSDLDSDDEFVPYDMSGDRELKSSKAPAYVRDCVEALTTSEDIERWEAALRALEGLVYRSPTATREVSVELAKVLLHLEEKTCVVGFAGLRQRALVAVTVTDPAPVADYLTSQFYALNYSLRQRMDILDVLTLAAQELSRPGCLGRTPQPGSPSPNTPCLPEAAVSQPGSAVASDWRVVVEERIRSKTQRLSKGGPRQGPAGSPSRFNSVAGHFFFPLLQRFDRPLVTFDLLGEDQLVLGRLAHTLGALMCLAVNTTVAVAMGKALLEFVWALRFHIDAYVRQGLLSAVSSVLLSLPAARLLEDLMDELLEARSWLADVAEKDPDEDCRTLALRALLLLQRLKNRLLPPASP
UniProt P29401: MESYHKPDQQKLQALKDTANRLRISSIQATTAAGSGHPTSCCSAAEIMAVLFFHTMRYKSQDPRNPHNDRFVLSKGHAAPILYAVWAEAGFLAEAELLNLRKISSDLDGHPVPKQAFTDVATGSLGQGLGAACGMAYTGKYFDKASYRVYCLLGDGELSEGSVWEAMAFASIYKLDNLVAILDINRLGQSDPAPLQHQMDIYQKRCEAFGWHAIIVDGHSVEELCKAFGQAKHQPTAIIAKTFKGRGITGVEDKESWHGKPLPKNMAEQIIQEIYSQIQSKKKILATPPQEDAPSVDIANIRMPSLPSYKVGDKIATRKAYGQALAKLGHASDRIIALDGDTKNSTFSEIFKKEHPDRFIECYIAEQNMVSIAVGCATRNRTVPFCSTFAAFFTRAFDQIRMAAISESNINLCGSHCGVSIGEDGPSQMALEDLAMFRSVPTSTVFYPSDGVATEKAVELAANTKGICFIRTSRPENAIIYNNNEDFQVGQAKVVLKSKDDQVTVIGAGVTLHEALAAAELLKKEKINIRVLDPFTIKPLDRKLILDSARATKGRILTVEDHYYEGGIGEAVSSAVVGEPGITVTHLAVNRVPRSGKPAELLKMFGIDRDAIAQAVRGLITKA
UniProt Q9Y490: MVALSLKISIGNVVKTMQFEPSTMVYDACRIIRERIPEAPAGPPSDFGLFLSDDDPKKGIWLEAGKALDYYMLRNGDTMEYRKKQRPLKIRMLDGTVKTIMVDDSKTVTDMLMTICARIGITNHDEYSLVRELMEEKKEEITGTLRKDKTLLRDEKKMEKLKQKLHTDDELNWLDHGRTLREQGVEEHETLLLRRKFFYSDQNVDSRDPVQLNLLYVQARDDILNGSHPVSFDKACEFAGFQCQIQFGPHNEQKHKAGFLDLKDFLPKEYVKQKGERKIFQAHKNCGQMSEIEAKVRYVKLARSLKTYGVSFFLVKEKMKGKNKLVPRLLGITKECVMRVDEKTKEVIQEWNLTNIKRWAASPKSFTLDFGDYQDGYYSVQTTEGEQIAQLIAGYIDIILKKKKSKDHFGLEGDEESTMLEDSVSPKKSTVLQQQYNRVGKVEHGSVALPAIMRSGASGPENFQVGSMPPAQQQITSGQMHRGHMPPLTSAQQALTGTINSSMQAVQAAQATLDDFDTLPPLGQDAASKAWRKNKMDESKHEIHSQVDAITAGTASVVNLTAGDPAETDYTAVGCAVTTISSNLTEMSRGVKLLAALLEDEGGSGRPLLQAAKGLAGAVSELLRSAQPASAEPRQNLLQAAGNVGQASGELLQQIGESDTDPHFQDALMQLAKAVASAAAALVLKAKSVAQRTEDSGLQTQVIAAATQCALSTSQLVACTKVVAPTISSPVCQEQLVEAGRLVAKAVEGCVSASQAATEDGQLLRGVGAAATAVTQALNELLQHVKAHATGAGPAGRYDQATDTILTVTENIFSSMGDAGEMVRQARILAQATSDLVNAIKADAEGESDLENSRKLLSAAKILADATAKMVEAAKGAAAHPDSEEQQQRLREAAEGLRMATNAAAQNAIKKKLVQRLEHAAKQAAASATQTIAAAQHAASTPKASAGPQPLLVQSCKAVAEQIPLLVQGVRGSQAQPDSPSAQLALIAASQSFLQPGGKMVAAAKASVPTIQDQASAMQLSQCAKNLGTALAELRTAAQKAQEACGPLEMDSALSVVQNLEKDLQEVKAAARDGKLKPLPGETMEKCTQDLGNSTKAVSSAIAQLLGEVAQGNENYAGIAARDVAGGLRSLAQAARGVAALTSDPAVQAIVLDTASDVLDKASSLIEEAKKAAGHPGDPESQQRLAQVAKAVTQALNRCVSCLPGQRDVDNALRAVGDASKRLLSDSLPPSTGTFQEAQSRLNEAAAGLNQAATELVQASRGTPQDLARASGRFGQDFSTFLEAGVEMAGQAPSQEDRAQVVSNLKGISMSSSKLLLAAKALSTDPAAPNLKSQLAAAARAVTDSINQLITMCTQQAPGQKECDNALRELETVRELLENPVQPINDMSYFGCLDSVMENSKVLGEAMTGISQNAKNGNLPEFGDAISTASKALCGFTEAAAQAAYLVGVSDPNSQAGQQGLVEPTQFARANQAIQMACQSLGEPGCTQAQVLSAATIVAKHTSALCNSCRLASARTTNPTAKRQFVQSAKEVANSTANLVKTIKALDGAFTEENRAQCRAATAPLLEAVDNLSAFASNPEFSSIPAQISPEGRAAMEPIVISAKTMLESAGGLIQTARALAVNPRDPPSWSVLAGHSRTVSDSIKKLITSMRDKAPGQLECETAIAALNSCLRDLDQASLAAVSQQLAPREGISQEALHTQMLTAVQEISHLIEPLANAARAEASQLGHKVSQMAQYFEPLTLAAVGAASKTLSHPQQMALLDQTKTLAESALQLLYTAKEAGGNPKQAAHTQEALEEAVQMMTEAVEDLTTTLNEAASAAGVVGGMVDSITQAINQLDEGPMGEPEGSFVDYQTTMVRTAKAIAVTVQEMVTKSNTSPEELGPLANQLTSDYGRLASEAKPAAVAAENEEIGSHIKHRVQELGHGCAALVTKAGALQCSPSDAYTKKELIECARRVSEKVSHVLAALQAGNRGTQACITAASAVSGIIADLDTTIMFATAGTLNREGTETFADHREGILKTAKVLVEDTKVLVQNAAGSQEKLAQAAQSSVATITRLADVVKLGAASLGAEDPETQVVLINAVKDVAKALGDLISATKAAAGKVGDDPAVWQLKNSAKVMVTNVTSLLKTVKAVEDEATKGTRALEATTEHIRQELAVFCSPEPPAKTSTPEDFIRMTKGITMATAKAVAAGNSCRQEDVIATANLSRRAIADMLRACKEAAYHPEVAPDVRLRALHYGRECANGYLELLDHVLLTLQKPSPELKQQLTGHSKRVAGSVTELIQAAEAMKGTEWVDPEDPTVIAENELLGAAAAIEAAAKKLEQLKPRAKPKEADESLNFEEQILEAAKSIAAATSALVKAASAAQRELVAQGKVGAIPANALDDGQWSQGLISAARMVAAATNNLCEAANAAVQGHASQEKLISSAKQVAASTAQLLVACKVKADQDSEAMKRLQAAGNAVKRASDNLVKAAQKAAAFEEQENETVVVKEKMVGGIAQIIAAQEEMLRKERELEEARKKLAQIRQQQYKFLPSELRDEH
UniProt Q6PIY7: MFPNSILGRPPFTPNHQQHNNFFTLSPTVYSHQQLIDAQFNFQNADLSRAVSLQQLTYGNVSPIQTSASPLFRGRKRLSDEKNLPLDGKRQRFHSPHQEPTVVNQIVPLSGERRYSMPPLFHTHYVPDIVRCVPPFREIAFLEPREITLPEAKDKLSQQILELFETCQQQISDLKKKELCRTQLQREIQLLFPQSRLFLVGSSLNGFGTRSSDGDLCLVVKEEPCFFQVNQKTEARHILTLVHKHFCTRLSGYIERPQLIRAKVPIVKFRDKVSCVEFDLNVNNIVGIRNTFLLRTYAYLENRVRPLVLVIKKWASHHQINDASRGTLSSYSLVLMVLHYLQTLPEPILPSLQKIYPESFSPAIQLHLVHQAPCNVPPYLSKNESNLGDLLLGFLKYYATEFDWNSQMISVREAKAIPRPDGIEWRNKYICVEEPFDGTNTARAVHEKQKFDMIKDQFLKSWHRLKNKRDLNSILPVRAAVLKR
UniProt Q8NI27: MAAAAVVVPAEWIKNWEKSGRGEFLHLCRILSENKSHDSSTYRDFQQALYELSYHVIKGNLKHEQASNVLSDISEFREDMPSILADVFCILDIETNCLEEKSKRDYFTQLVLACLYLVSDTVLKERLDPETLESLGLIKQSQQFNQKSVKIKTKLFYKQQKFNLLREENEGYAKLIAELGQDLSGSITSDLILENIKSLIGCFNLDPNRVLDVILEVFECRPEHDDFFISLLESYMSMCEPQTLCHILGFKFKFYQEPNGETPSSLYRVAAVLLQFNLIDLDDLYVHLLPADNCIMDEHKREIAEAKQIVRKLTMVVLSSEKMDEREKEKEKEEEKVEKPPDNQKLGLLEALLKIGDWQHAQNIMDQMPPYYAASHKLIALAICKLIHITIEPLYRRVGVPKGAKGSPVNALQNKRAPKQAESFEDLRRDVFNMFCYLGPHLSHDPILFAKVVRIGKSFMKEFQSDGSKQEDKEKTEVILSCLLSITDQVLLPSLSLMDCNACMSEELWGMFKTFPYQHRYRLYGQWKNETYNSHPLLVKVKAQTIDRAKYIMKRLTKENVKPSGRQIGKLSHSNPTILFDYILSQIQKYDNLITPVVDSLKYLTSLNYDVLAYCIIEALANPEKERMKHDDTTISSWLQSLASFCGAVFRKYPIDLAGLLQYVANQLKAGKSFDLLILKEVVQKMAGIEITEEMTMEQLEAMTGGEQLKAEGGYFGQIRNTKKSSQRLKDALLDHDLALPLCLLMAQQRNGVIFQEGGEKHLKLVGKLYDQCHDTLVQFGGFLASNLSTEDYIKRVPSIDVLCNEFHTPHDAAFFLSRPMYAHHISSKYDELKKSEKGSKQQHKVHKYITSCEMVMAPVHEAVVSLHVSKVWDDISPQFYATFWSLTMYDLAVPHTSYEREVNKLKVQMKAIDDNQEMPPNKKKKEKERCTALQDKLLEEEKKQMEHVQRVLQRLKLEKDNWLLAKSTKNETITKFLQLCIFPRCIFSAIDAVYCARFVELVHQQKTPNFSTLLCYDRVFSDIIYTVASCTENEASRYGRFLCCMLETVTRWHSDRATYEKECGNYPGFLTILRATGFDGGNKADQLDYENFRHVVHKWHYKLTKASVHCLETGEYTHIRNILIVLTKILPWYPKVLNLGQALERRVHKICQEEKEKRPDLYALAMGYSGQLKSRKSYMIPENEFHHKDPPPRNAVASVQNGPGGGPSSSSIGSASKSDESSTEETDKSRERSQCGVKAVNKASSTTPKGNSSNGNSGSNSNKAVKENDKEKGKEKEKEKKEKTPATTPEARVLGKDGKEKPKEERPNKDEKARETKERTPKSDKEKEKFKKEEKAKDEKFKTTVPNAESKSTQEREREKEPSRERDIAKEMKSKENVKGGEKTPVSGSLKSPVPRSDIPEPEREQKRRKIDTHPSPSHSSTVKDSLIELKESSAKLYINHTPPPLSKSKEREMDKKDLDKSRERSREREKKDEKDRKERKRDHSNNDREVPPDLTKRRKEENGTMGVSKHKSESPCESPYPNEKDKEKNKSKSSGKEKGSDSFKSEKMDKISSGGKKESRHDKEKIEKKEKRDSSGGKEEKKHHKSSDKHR

Each target was assayed with Cc1cc(ccc1-c1ccccc1)C(=O)N1CCCN(CC1)C(=O)CCl [compound 10] (assay: probe-labelled cysteine peptide fold change vs DMSO (competition) (log2 fold change); higher = less target engagement (more negative = stronger competition)). Details: 50 µM; THP-1; incubation time: 4 h.
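Further: competitive profiling in live THP-1 cells: cysteine peptides tagged with an iodoacetamide desthiobiotin (IA-DTB) probe, intensity after compound treatment relative to DMSO-treated cells.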

Target	probe-labelled cysteine peptide fold change
THUMPD1_Q9NXG2_169_MLPISGTCK (UniProt Q9NXG2)	0.00242
THBS1_P07996_413_CEGSSVQTR (UniProt P07996)	-0.273
TES_Q9UGI8_412+416_FMPVEGMVFCSVECK (UniProt Q9UGI8)	-0.434
THSD7A_Q9UPZ6_1036_CNSHGYIEEACIIPCPSDCK (UniProt Q9UPZ6)	0.058
TEC_P42680_625_TIDELVECEETFGR (UniProt P42680)	-0.313
TELO2_Q9Y4R8_568_TCVVGFAGLR (UniProt Q9Y4R8)	-0.259
TKFC_Q3LXA3_404_AAGDGDCGTTHSR (UniProt Q3LXA3)	0.0509
TELO2_Q9Y4R8_813_SWLADVAEKDPDEDCR (UniProt Q9Y4R8)	0.397
TKT_P29401_225_RCEAFGWHAIIVDGHSVEELCK (UniProt P29401)	0.0307
THBS1_P07996_406_SCDSLNNR (UniProt P07996)	0.0245
TK2_O00142_54_SVICVEGNIASGK (UniProt O00142)	0.145
TDRD3_Q9H7E2_377_CDRPYSR (UniProt Q9H7E2)	-0.233
TLN1_Q9Y490_1509_HTSALCNSCR (UniProt Q9Y490)	-0.0191
THUMPD1_Q9NXG2_31_RCDAGGPR (UniProt Q9NXG2)	-0.594
TEP1_Q99973_2105_TPVLIHSFPACHR (UniProt Q99973)	-0.291
TENT2_Q6PIY7_431_YICVEEPFDGTNTAR (UniProt Q6PIY7)	0.261
THG1L_Q9NWX6_51_DFEADDTCLAHCWVVVR (UniProt Q9NWX6)	0.143
TKFC_Q3LXA3_13+24_KLVNSVAGCADDALAGLVACNPNLQLLQGHR (UniProt Q3LXA3)	-0.32
THOC2_Q8NI27_743_DALLDHDLALPLCLLMAQQR (UniProt Q8NI27)	0.0571
THTPA_Q9BU02_66_CPGAAGVLGPHTEYK (UniProt Q9BU02)	-0.142

Reformatted field by field: part of the list above.
TENT2_Q6PIY7_431_YICVEEPFDGTNTAR (UniProt Q6PIY7)
  probe-labelled cysteine peptide fold change: 0.261
THOC2_Q8NI27_743_DALLDHDLALPLCLLMAQQR (UniProt Q8NI27)
  probe-labelled cysteine peptide fold change: 0.0571

Later entries:

Target	probe-labelled cysteine peptide fold change
TEP1_Q99973_2000_ECSLQSLWLLSR (UniProt Q99973)	-0.118
TLN1_Q9Y490_1671_APGQLECETAIAALNSCLR (UniProt Q9Y490)	-0.0484
THUMPD3_Q9BV44_239_HCFTSNEAAR (UniProt Q9BV44)	-0.17
TCP1_P17987_385_GANDFMCDEMER (UniProt P17987)	0.0013
THOC7_Q6I9Y2_90_EIECSIAGAHEK (UniProt Q6I9Y2)	0.0365
TEX10_Q9NXF1_454_DCSWIEMIR (UniProt Q9NXF1)	0.103
THOP1_P52888_175_KLSLLCIDFNK (UniProt P52888)	0.0417
TES_Q9UGI8_361+364_NHAVVCQGCHNAIDPEVQR (UniProt Q9UGI8)	-0.5
TKT_P29401_133_QAFTDVATGSLGQGLGAACGMAYTGK (UniProt P29401)	0.0514
TLN1_Q9Y490_2243_ECANGYLELLDHVLLTLQK (UniProt Q9Y490)	0.303
TLN1_Q9Y490_1927_HRVQELGHGCAALVTK (UniProt Q9Y490)	-0.0904
TFIP11_Q9UBB9_383_VLEMVEECERR (UniProt Q9UBB9)	-0.119
TIGAR_Q9NQ88_114_EECPVFTPPGGETLDQVK (UniProt Q9NQ88)	-1.35
THYN1_Q9P016_118_LGEEAFFYHSNCK (UniProt Q9P016)	-0.175
TELO2_Q9Y4R8_30_EAIHALSSSEDGGHIFCTLESLKR (UniProt Q9Y4R8)	-0.671
TEP1_Q99973_692_TVLVYLTDANADRLCPK (UniProt Q99973)	-0.442
TEX30_Q5JUR7_21_LLDAVCLVPNK (UniProt Q5JUR7)	0.192
TES_Q9UGI8_164_CHELSPR (UniProt Q9UGI8)	-0.0644
TGS1_Q96RS0_357_ECPASGQSEPR (UniProt Q96RS0)	0.216
